Data from the ROBIN nucleic acid binder screens, doi:10.1002/anie.202211358.

Targets, with sequences 5′ to 3′:
PreQ1: PreQ1 riboswitch RNA pseudoknot, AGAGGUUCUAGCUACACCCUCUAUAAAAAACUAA. From B. subtilis. About 170 hits among about 24,000 compounds.
TPP: TPP riboswitch RNA three-way junction, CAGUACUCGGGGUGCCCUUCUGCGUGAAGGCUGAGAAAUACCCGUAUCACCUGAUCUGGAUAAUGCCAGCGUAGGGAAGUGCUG. About 160 hits among about 24,000 compounds.
SAM-II: SAM-II riboswitch RNA pseudoknot, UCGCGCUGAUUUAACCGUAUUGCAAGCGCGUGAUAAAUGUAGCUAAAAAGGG. About 200 hits among about 21,000 compounds.

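The test is a small-molecule microarray: each compound is printed twice on a reactive slide, and binding shows as fluorescence of the labelled oligonucleotide after washing. The data file lists only calls. An earlier report of the laboratory on the PreQ1, TPP and SAM-II riboswitches (doi:10.1038/s41467-019-09493-3) used 1 µM RNA for 2 h and required a mean Z-score above 3 (spot signal-to-noise against the whole library), a score well above that on a control array, and duplicate spots agreeing (coefficient of variation under 100); it then also set aside compounds that hit other targets, which this list keeps. The cut-offs behind this list may differ. The calls come from the array alone, and fixing a compound to the slide can hide its binding.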
“yes” means called a hit, “no” means screened and not called a hit.
The compounds are a random part of those screened.
A target missing from an entry has no call listed here.

{"structure": "CCCCSc1nc2c3cc(OC)ccc3n(C)c2c(=O)n1CCO", "PreQ1": "no", "TPP": "no", "SAM-II": "no"}
{"structure": "CCn1c(=N)n(CC(O)c2ccccc2)c2ccccc21", "stereo": "stereo not given", "PreQ1": "no", "TPP": "no", "SAM-II": "no"}
{"structure": "CCCn1cnc2cc(NCc3ccncc3)ccc21", "PreQ1": "no", "TPP": "no", "SAM-II": "no"}
{"structure": "O=C(c1ccc(CO)o1)N1C[C@H]2CC=CC[C@H]2C1", "PreQ1": "no", "TPP": "no", "SAM-II": "no"}
{"structure": "Cc1cc(NCCCN2CCOCC2)n2nc(-c3ccccc3)c(C)c2n1", "PreQ1": "no", "TPP": "no"}
{"structure": "CCCNc1cc(C)nc2nc(-c3ccc(C(C)(C)C)cc3)nn12", "PreQ1": "no", "TPP": "no"}
{"structure": "c1ccc(Nc2c3c(nc4ccccc24)CCC3)cc1", "PreQ1": "no", "TPP": "no", "SAM-II": "no"}
{"structure": "Nc1cc(OC(=O)c2cccc(F)c2)nn1S(=O)(=O)c1ccccc1", "PreQ1": "no", "TPP": "no", "SAM-II": "no"}
{"structure": "CC1CCCCC1Nc1ncnc2onc(-c3ccc(F)cc3)c12", "stereo": "stereo not given", "PreQ1": "no", "TPP": "no"}
{"structure": "O=C(O)CCC(=O)c1ccc2ccc3cccc4ccc1c2c34", "PreQ1": "no", "TPP": "no", "SAM-II": "no"}
{"structure": "COc1ccc(Br)cc1C1C(C#N)=C(N)Oc2cc(O)ccc21", "stereo": "stereo not given", "PreQ1": "no", "TPP": "no", "SAM-II": "no"}
{"structure": "CN(C)S(=O)(=O)c1ccccc1N=C=S", "PreQ1": "no", "TPP": "no", "SAM-II": "no"}
{"structure": "COc1ccc(C(C)=O)cc1CO/N=C1\\CSCc2ccccc21", "PreQ1": "no", "TPP": "no", "SAM-II": "no"}
{"structure": "Cc1cccnc1[C@H](C)NC(=O)c1cccc(CC2CCNCC2)c1", "PreQ1": "no", "TPP": "no", "SAM-II": "no"}
{"structure": "Cl.NCC(c1cccs1)S(=O)(=O)c1ccc(F)cc1", "stereo": "stereo not given", "PreQ1": "no", "TPP": "no", "SAM-II": "no"}
{"structure": "O=C(c1ccc(F)cc1Cl)N1CCC2(CC1)OCCCC2O", "stereo": "stereo not given", "PreQ1": "no", "TPP": "no", "SAM-II": "no"}
{"structure": "CC1CN(c2nc(Nc3cccc(Cl)c3)c3cnn(C)c3n2)CC(C)O1", "stereo": "stereo not given", "PreQ1": "no", "TPP": "no"}
{"structure": "O=C(CCC1CC1)N1CCC(Cc2cccc(CO)c2)C1", "stereo": "stereo not given", "PreQ1": "no", "TPP": "no", "SAM-II": "no"}
{"structure": "COc1ccc2cc(CN(C)[C@H]3COC[C@@H]3O)c(-c3cccs3)nc2c1", "PreQ1": "no", "TPP": "no", "SAM-II": "no"}
{"structure": "O=C(O)Cc1ccc(/N=N/c2c(O)c(C(=O)O)cc3ccccc23)cc1", "PreQ1": "no", "TPP": "no", "SAM-II": "no"}
{"structure": "CC(Cc1cccc(F)c1)NCc1n[nH]c2c1CCC2", "stereo": "stereo not given", "PreQ1": "no", "TPP": "no", "SAM-II": "no"}
{"structure": "CCc1n[nH]cc1C(=O)N1C[C@@H](CN2CCCCCC2)[C@@H](CO)C1", "PreQ1": "no", "TPP": "no", "SAM-II": "no"}
{"structure": "CCCCc1c(C)[nH]c(=S)[nH]c1=O", "PreQ1": "no", "TPP": "no", "SAM-II": "no"}
{"structure": "O=C1OC(Nc2ccc(Br)cc2)c2ccccc21", "stereo": "stereo not given", "PreQ1": "no", "TPP": "no", "SAM-II": "no"}
{"structure": "Nc1cc(=O)[nH]c(SCC(=O)Nc2ccc(Cl)cn2)n1", "PreQ1": "no", "TPP": "no", "SAM-II": "no"}
{"structure": "CCOc1cc(CNCCO)cc(Cl)c1OCc1cccs1", "PreQ1": "no", "TPP": "no", "SAM-II": "no"}
{"structure": "COc1ccc(Cl)c(-c2c(-c3ccccc3)ncn2C[C@H](C)O)c1F", "PreQ1": "no", "TPP": "no", "SAM-II": "no"}
{"structure": "O=C(Oc1cccc(Nc2ncnc3ccccc23)c1)c1cccs1", "PreQ1": "no", "TPP": "no", "SAM-II": "no"}
{"structure": "O=S1(=O)N=C(Nc2ccc(F)cc2)c2ccccc21", "PreQ1": "no", "TPP": "no", "SAM-II": "no"}
{"structure": "[O-][n+]1ccc(CC(O)(C(F)(F)F)C(F)(F)F)cc1", "PreQ1": "no", "TPP": "no", "SAM-II": "no"}
{"structure": "CC(O)c1nc2ccccc2n1CCOc1cccc2ccccc12", "stereo": "stereo not given", "PreQ1": "no", "TPP": "no", "SAM-II": "no"}
{"structure": "Cc1ccc(Cn2c(-c3nonc3N)nc3ccccc32)cc1", "PreQ1": "no", "TPP": "no", "SAM-II": "no"}
{"structure": "N#CC1=C(N)Oc2cc(O)ccc2C1c1cccc(Br)c1", "stereo": "stereo not given", "PreQ1": "no", "TPP": "no", "SAM-II": "no"}
{"structure": "CCN(CCO)C[C@@H]1CN(c2noc(C(C)C)n2)C[C@@H]1CO", "PreQ1": "no", "TPP": "no", "SAM-II": "no"}
{"structure": "N#Cc1cnc(N2CCN(CCOCc3ccccc3)CC2)nc1N", "PreQ1": "no", "TPP": "no", "SAM-II": "no"}
{"structure": "COc1cc(OC)c(C2C(C#N)=C(N)Oc3cc(C)oc(=O)c32)cc1OC", "stereo": "stereo not given", "PreQ1": "no", "TPP": "no", "SAM-II": "no"}
{"structure": "Cn1c(=O)n(CCCO)c(=O)c2c1nc1n2CCCN1Cc1ccco1", "PreQ1": "no", "TPP": "no"}
{"structure": "Fc1ccc(CNCCC(c2ccc(F)cc2)c2ccco2)cc1", "stereo": "stereo not given", "PreQ1": "no", "TPP": "no", "SAM-II": "no"}
{"structure": "O=C(CCNC(=O)[C@H]1CC[C@@H](O)CC1)Nc1cccc2ccccc12", "PreQ1": "no", "TPP": "no", "SAM-II": "no"}
{"structure": "Cn1c(C(=O)O)c(CNCCN2CCOCC2)c2ccccc21", "PreQ1": "no", "TPP": "no"}
{"structure": "CNc1nsc(C(=O)c2ccc(F)cc2)c1N", "PreQ1": "no", "TPP": "no", "SAM-II": "no"}
{"structure": "NCCCN1C(=O)CC[C@H]2CN(C(=O)CCn3cncn3)CC[C@H]21", "PreQ1": "no", "TPP": "no", "SAM-II": "no"}

The first 2 entries again:

{"structure": "CCCCSc1nc2c3cc(OC)ccc3n(C)c2c(=O)n1CCO", "PreQ1": "no", "TPP": "no", "SAM-II": "no"}
{"structure": "CCn1c(=N)n(CC(O)c2ccccc2)c2ccccc21", "stereo": "stereo not given", "PreQ1": "no", "TPP": "no", "SAM-II": "no"}